Measurements as given in US20250101113A1.
These are yes or no findings as the source states them, for the method shown. Some binding calls cover weakened binding; strength is not graded here.

The chains behind the UniProt entries cited, without tags or fusion partners. Where a name states a change or a piece, a line headed by the entry shows the natural chain unless it says otherwise.
UniProt Q13241: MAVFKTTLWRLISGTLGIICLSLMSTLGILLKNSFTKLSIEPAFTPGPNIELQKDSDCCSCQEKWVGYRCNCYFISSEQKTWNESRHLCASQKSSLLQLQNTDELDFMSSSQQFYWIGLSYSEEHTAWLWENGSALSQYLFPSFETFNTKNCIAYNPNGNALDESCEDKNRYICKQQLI

Assays:
[1] = biological target: human CD94 on cells (human) (UniProt Q13241); assay: flow cytometry, AF647-conjugated antibody on NK cell lines
[2] = biological target: human CD94 on cells (human) (UniProt Q13241); assay: flow cytometry on wild-type and CRISPR-Cas9 CD94 knock-out KHYG-1 and NK92 cells
[3] = biological target: human CD94 on cells (human) (UniProt Q13241); assay: flow cytometry, AF647-conjugated antibody on CD94-transfected L cells and normal donor PBMC

binding [1]: binds
binding [2]: binds
binding [3]: binds
B1: UT-CD94 monoclonal antibody (murine anti-human CD94 monoclonal antibody generated by hybridoma technology) (antibody, V domains shown)
VH: EVQLQQSGAELVKPGASVKLSCTASGFNIKDTYMHWVKQRPEQGLEWIGRIDPANGNTQYDPKFQGKATIPADTSSNTAYLQLSSLTSEDTAVYYCVYGRGSAWFAFWGQGTLVTVSA
VL: DIQMTQTTSSLSASLGDRVTISCRASQDISNYLNWYQQKPDGTVKLLIYYTSRLHSGVPSRFSGSGSGTDYSLTISNLEQEDIATYFCQQGNTLPWTFGGGTKLEIK
